Patent US6706765B2, “Aminoguanidines and alkoxyguanidines as protease inhibitors” (3-Dimensional Pharmaceuticals, Inc., priority 1996, dated 2004)
Counter-ions that a name gives are not always drawn. At least one structure is not confirmed: it was looked up by name or label, or the drawing left a doubt.

Molecular target: T1, human α-thrombin (Homo sapiens, UniProt P00734)
T1 construct: Purified human α-thrombin; purchased Enzyme Research Laboratories (South Bend, Ind.)
Assay: In vitro inhibition of purified thrombin, p-nitroanilide substrate hydrolysis
Type: biochemical
Conditions: summary of Table 1, versus FXa, chymotrypsin, elastase, plasmin, trypsin
Description: Reagents: All buffer salts were obtained from Sigma Chemical Company (St. Louis, Mo.), and were of the highest purity available. The enzyme substrates, N-benzoyl-Phe-Val-Arg-p-nitroanilide (Sigma B7632), N-benzoyl-Ile-Glu-Gly-Arg-p-nitroanilide hydrochloride (Sigma B2291), N-p-Tosyl-Gly-Pro-Lys-p-nitroanilide (Sigma T6140), N-succinyl-Ala-Ala-Pro-Phe-p-nitroanilide (Sigma S7388) and N-CBZ-Val-Gly-Arg-p-nitroanilide (Sigma C7271) were obtained from Sigma.
Human α-thrombin, human factor Xa and human plasmin were obtained from Enzyme Research Laboratories (South Bend, Ind.). […]
Ki Determinations: All assays are based on the ability of the test compound to inhibit the enzyme catalyzed hydrolysis of a peptide p-nitroanilide substrate. […] In general, substrate concentrations are lower than the experimentally determined value for Km. […]
Reactions were initiated by the addition of a 10 μL aliquot of enzyme and the absorbance increase at 405 nm is recorded for 15 minutes. […] The ratio of the velocity (rate of change in absorbance as a function of time) for a sample containing no test compound is divided by the velocity of a sample containing test compound, and is plotted as a function of test compound concentration. The data are fit to a linear regression, and the value of the slope of the line calculated. The inverse of the slope is the experimentally determined Ki value. […]

`Cc1cc(OCCCNNC(=N)N)cc(OS(=O)(=O)c2ccccc2C(F)(F)F)c1` [Example 83, 3-[5-Methyl-3-(2-trifluoromethylphenylsulfonyloxy)phenoxy]propylamino Guanidine Hydrochloride] was tested, and the “Thrombin inhibition and selectivity, in words” value was “potent and highly selective inhibitors of thrombin”.
